The subject of series [1] is RNA polymerase sigma-70 holoenzyme (Escherichia coli). As to the kind of experiment: EMSA. Conditions: 200 nM RNAP, 5 mM Mg2+, 37 C; EMSA: 2 nM DNA, 128 ng salmon sperm DNA in 10 uL, 50 mM Tris-HCl pH 7.5, 50 mM KCl, 5% glycerol, room temperature 10 min, 6% native PAGE in TBE; commercial protein; label: DY682 on both primers; probe letters rebuilt from the primers and the genome.

Series [2] concerns DinJ (Lacticaseibacillus paracasei 4366). As to the kind of experiment: EMSA. The following applies: KDapp, Hill n 3.7 ± 0.2, salmon sperm DNA competitor; EMSA: 2 nM DNA, 128 ng salmon sperm DNA in 10 uL, 50 mM Tris-HCl pH 7.5, 50 mM KCl, 5% glycerol, room temperature 10 min, 6% native PAGE in TBE; recombinant protein; residues 1-89; protein details: N-terminal His6 (pET28b); label: DY682 on both primers; probe letters rebuilt from the primers and the genome.

Series [3] shares this test system. As to the kind of experiment: competition with a labelled probe. Conditions: versus 200 nM RNAP, inhibits RNAP binding, partially dissociates at 37 C, 5 mM Mg2+; EMSA: 2 nM DNA, 128 ng salmon sperm DNA in 10 uL, 50 mM Tris-HCl pH 7.5, 50 mM KCl, 5% glycerol, room temperature 10 min, 6% native PAGE in TBE; recombinant protein; residues 1-89; protein details: N-terminal His6 (pET28b); label: DY682 on both primers; probe letters rebuilt from the primers and the genome.

For one sequence, binding result and Kd results are on record in paper PMC9592637, “Functional characterization and transcriptional repression by Lacticaseibacillus paracasei DinJ-YafQ” (Applied Microbiology and Biotechnology, 2022).

pKd: −log10 of the molar value. The exact form of at least one protein or probe is not confirmed.

As for “GATCAACACGAATATTCAAGCGAGTTTCTTTCTTTGTGGCTGCCATTGCTAACCACTCCTTCCTATCTAACAACCTAATTATATCACGAATTATCCCAATGTAAACACAGCGGGATAACATCATGTGAGATGAATTCAACCGGATTTCTGGCTTTTTCTTCGCACAAATGGAAGCGTAACTGCCATCAGACGTT (double strand) [194-bp dinJ-yafQ promoter fragment]”, the binding result in series [1] and in series [3] was “binds” each time. Also, the pKd in series [2] is 7.21.
